# Test results taken from PubChem BioAssay AID588497 (NMMLSC, 2011).
# The whole screen tested about 360,000 compounds, of which about 780 (0.22%) were called active. Inconclusive means that the source gave no clear call. Such entries were picked first, then a sample of the others. Cut-off read from the data, not from the text of the source: active = inhibition above about 35% (passing the limit was not always enough); inconclusive = no clear call, values can overlap the other calls.
# System: Botulinum neurotoxin type F light chain protease (Clostridium botulinum)
# Assay: BoNT/F light chain protease inhibitors, primary screen, biochemical, flow cytometry, MLPCN library (AID 588497); note: plate controls were buffer without enzyme for full effect and enzyme alone for no effect
# Settings: Multiplex microsphere protease cleavage assay, at 10 µM, active compounds read high
row,Structure (SMILES),inhibition
1,CC(=O)c1ccc(CCCC(=O)O)cc1,inconclusive: 12.9%
2,Cc1ccc(C)c(OC(=O)c2cccnc2)c1,inconclusive: 36.1%
3,COc1ccc(OCCNC(=O)C2(C)CCN2Cc2ccc3ccccc3c2)cc1 (centres undefined),inactive: 0.4%
4,O=C(N/N=C/c1c[nH]c2ccccc12)c1ccccc1Cl,inconclusive: -13.6%
5,O=c1[nH]n(CCO)c(=O)c2cccnc12,inconclusive: -12.9%
6,CC(C)C(=O)C1=Cc2cc([N+](=O)[O-])ccc2OC1N1CCOCC1 (centres undefined),inconclusive: 36.3%
7,CCOC(=O)C1=C(c2ccccc2)NC(SCC(N)=O)=C(C#N)C1c1cccnc1 (centres undefined),inactive: 3.6%
8,Cc1ccc(S(=O)(=O)N2CCOCC2)cc1C(=O)OCC(=O)NC1CCS(=O)(=O)C1 (centres undefined),inactive: -3.6%
9,CNC(=S)N(CCc1c(C)[nH]c2ccc(OC)cc12)Cc1ccco1,inactive: -35.3%
10,CCOC(=O)/C(C#N)=C/c1c(N2CCN(c3ccccc3)CC2)nc2c(C)cccn2c1=O,inconclusive: -5.4%
11,CCOC(=O)C1CCN(C(c2cc3c(C)ccc(C)c3[nH]c2=O)c2nnnn2C2CCCCC2)CC1 (centres undefined),active: 109%
12,NCc1cccc(-n2cccn2)c1,inactive: -1.1%
13,Cn1cnnc1SCC(=O)N/N=C/c1ccc(OCC(N)=O)cc1,inconclusive: 6.6%
14,Nc1c(C(=O)CSc2n[nH]c(-c3ccccc3)n2)c(=O)[nH]c(=O)n1C1CC1,inconclusive: -7.5%
15,CCOC(=O)NNc1ccc(C(F)(F)F)cn1,inconclusive: -4.4%
16,Cc1ccc(C(=O)CSc2nc3ccccc3c(=O)[nH]2)cc1,inactive: 3.7%
17,COc1ccc(/C=N/NC(=O)Cn2nc([N+](=O)[O-])cc2C)c(OC)c1OC,inconclusive: 60.1%
18,COc1cc(/C=C\C(=O)NCc2ccc3[nH]c(C)cc3c2)cc(OC)c1OC,inactive: 11.2%
19,CC(=O)c1cccc(OCCCOc2cccc3cccnc23)c1,inconclusive: -18.5%
20,CCc1cc2cc3c(cc2nc1SCC(=O)Nc1c[nH]c(=O)[nH]c1=O)OCO3,inactive: -7.6%

# Already shown: three of the compounds above.
row,Structure (SMILES),inhibition
9,CNC(=S)N(CCc1c(C)[nH]c2ccc(OC)cc12)Cc1ccco1,inactive: -35.3%
10,CCOC(=O)/C(C#N)=C/c1c(N2CCN(c3ccccc3)CC2)nc2c(C)cccn2c1=O,inconclusive: -5.4%
11,CCOC(=O)C1CCN(C(c2cc3c(C)ccc(C)c3[nH]c2=O)c2nnnn2C2CCCCC2)CC1 (centres undefined),active: 109%

# The list continues:

row,Structure (SMILES),inhibition
1,CCC(C)c1ccccc1NC(=O)C(C)OC(=O)c1ccco1 (centres undefined),inconclusive: -7%
2,O=C(NNC(=O)c1ccc(Br)cc1)c1ccncc1,inconclusive: 3.6%
3,COCCNC(=O)CSc1nc(-c2ccccc2)c(-c2ccccc2)o1,inactive: -8.4%
4,CCCCN1C[C@H](COC(=O)CCC)Oc2cccc(F)c2S1(=O)=O,inactive: -4.3%
5,CCc1ccccc1-n1nnnc1SCC(=O)Nc1ccc(N2CCN(C)CC2)cc1,inactive: -10.9%
6,Cc1ccc(NC(=O)c2cnccn2)c(Br)c1,inconclusive: 22.4%
7,c1cc2c(cc1NC1CCCCCC1)OCO2,inconclusive: -42.2%
8,N/C(=N\OC(=O)c1ccc(Cl)c([N+](=O)[O-])c1)c1ccccc1,active: 63%
9,CSc1cccc(NC(=O)CN2C(=O)c3ccccc3S2(=O)=O)c1,inactive: -3%
10,NS(=O)(=O)c1cccc(NC(=O)CSc2nnc(C3CC3)n2Cc2ccccc2)c1,inactive: -8.1%
11,Cc1ccc(C2=NN(CC(=O)O)C(=O)CC2)cc1,active: 49.5%
12,C/C(=N\NC(N)=O)c1c(F)cccc1F,inconclusive: 101%
13,COCCCNC(=O)[C@@H](Cc1ccccc1)NC(=O)CC[C@H]1O[C@@H](n2ccc(=O)[nH]c2=O)[C@H](O)[C@@H]1O,inactive: 1.5%
14,CSCCC(NC(=O)c1ccco1)C(=O)Nc1ccc(C)c(S(=O)(=O)N2CCOCC2)c1 (centres undefined),inconclusive: -10.3%
15,CCC1CN(C(=O)NCc2ccc(F)cc2)c2ccccc2O1 (centres undefined),inconclusive: 18.1%
16,CC(=O)c1ccccc1NC(=O)c1ccc(N2CCCC2=O)cc1,inactive: -7%
17,COc1cccc(Oc2ncnc(N)c2[N+](=O)[O-])c1,inconclusive: -16.1%
18,CC1c2ccsc2CCN1C(=O)NC(=O)c1ccc(Cl)cc1 (centres undefined),inconclusive: -6.9%
19,C/C(=N\NC(=O)CC#N)C1COc2ccccc2O1 (centres undefined),inactive: -4%
20,C=CCn1c(SCc2ccc(F)cc2)nnc1-c1sc2nc(C)cc(C)c2c1N,inconclusive: -40.2%

row,Structure (SMILES),inhibition
1,COc1cc(Cl)cc(/C=C/c2ccc3cccc(O)c3n2)c1OC,inconclusive: -27.9%
2,O=C1C(=O)N(Cc2cccs2)c2ccccc21,inconclusive: 6.5%
3,Cc1nc2ccsc2c(=O)n1-c1ccccc1Cl,inconclusive: -20.1%
4,COCCn1c(-c2cccc(Br)c2)nc2c(c(=O)c3ccccc3n2C)c1=O,inconclusive: 134%
5,OCc1nc2ccccc2n1CCCCOc1ccccc1,inconclusive: 20.1%
6,COc1ccccc1C(=O)Nc1nc2ccccc2s1,inconclusive: 6.2%
7,CCn1cc(CN2CCCC(CO)(Cc3ccc(F)cc3)C2)c2ccccc21 (centres undefined),inconclusive: -36.8%
8,Cc1ccc(NC2=NC(c3ccc(F)cc3)n3c(nc(C)cc3=O)N2)cc1 (centres undefined),inconclusive: -29.6%
9,NC(=O)C1=CN(Cc2ccc(Cl)cc2)CCC1C(F)(F)F (centres undefined),inconclusive: 13.2%
10,CC1=C(C(=O)N2CCCCCC2)CC(CC(=O)NCc2cccs2)C(=O)N1Cc1ccccc1 (centres undefined),inactive: -8.5%
11,CCN(c1ccccc1C(=O)O)S(=O)(=O)c1cccc2nsnc12,inconclusive: -9.2%
12,CC1(C)C2CC[C@]3(C)C(CC=C4[C@@H]5C[C@@](C)(CO)[C@@H](O)C[C@]56C[C@@H](OC6=O)[C@]43C)[C@@]2(C)CC[C@@H]1O (some centres undefined),inactive: -5.4%
13,CCN(C(=O)CSc1nnc(-c2ccc(F)cc2)n1C)C1CCS(=O)(=O)C1 (centres undefined),inactive: -8%
14,CC1(C)CC(=O)C=C(Nc2ccc(C(=O)O)cc2)C1,inconclusive: -15.2%
15,COc1cccc2c(Nc3ccccc3C)cc(C)nc12,inconclusive: 14.8%
16,O=C(O)c1ccc(S(=O)(=O)N2CCC3(CC2)CC(=O)c2ccccc2O3)cc1,inconclusive: 1.6%
17,CCOC(=O)C1(C(=O)OCC)NC(=O)CC1CC(C)C (centres undefined),inactive: -1.7%
18,COc1cc(OC)nc(Oc2ccccc2C(=O)Oc2cccc(C)c2)n1,inactive: -15.3%
19,Cc1cc(NC(=O)CCC(=O)N(c2ccccc2)C(C(=O)NCC2CCCO2)c2cccnc2)no1 (centres undefined),inconclusive: -12.6%
